Test results published in publication PMC11671618.

The chains behind the UniProt entries cited, without tags or fusion partners.
UniProt Q9UMX0: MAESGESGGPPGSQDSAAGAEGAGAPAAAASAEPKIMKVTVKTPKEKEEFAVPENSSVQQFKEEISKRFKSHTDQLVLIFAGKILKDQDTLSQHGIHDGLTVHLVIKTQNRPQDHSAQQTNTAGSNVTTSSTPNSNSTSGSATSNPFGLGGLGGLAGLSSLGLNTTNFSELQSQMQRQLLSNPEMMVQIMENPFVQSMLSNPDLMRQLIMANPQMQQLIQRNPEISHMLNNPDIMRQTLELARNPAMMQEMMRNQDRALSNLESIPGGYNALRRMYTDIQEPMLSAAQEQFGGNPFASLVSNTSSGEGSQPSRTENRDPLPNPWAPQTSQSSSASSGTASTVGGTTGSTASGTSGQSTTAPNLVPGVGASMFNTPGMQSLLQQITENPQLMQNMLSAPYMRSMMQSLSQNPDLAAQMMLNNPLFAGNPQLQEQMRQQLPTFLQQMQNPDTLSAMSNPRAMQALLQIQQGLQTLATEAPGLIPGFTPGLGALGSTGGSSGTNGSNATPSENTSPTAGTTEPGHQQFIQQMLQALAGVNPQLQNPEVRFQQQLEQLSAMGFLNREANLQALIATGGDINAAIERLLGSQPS

Molecular target: T1, Beclin 2-Flag (UniProt A8MW95)
T1 sequence: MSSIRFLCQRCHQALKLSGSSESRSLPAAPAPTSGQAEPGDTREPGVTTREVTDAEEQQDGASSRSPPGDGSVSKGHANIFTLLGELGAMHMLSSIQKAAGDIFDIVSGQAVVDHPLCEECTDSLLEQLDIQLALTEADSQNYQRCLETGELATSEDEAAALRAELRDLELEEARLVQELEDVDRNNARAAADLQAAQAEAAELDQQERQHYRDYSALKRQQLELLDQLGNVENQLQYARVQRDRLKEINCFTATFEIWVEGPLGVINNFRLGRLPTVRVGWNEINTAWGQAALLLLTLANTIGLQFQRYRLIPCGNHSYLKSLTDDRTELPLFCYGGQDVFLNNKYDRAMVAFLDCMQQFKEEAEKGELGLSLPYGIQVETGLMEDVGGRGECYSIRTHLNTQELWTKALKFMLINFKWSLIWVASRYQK
Assay: affinity purification with mass spectrometry; lysate of MDA-MB-231 cells transfected with Beclin 2-Flag; IP with mouse Flag antibody against mouse IgG control, 12 h at 4°C, protein A/G magnetic beads, washes with PBST; MaxQuant search against UniProt human data

binding: binds
Substance: Ubiquilin 1 (from UniProt Q9UMX0 1-589)

Results are given in words; binding and its absence hold for the method and conditions named. Binding seen in cells or lysates may run through a third protein. Here binding means that the protein was enriched with, or labelled near, the bait; the list need not be complete. Sequences can lack the tags named with a protein.
